Some entries share one result that the patent states for a list of compounds.
B1: Gly131Lys, Gly132Thr, Met134Leu, Arg135Ser, Asn157Gly, Ser159Glu: hAGT mutant with the listed mutations, selected by phage display (protein, UniProt P16455 1-207, looked up, variant G131K G132T M134L R135S N157G S159E)
Methylated-DNA--protein-cystei …: MDKDCEMKRTTLDSPLGKLELSGCEQGLHEIKLLGKGTSAADAVEVPAPAAVLGGPEPLMQCTAWLNAYFHQPEAIEEFPVPALHHPVFQQESFTRQVLWKLLKVVKFGEVISYQQLAALAGNPKAARAVKTALSGNPVPILIPCHRVVCSSGAVGGYEGGLAVKEWLLAHEGHRLGKPGLGGSSGLAGAWLKGAGATSGSPPAGRN
B2: AGTM: AGT mutant Cys62Ala, Gln115Ser, Gln116His, Lys125Ala, Ala127Thr, Arg128Ala, Gly131Lys, Gly132Thr, Met134Leu, Arg135Ser, Cys150Asn, Ser151Ile, Ser152Asn, Asn157Gly, Ser159Glu, truncated after … (protein, UniProt P16455 1-207, looked up, variant C62A Q115S Q116H K125A A127T R128A G131K G132T M134L R135S C150N S151I S152N N157G S159E del183-207)
Methylated-DNA--protein-cystei …: MDKDCEMKRTTLDSPLGKLELSGCEQGLHEIKLLGKGTSAADAVEVPAPAAVLGGPEPLMQATAWLNAYFHQPEAIEEFPVPALHHPVFQQESFTRQVLWKLLKVVKFGEVISYSHLAALAGNPAATAAVKTALSGNPVPILIPCHRVVNINGAVGGYEGGLAVKEWLLAHEGHRLGKPGLG
modifications: His tag
B3: Cys62Ala, Gln115Ser, Gln116His, Lys125Ala, Ala127Thr, Arg128Ala, Cys150Asn, Ser151Ile, Ser152Asn, Asn157Gly, Ser159Glu, truncated after Gly182: particularly preferred hAGT mutant with the listed … (protein, UniProt P16455 1-207, looked up, variant C62A Q115S Q116H K125A A127T R128A C150N S151I S152N N157G S159E del183-207)
Methylated-DNA--protein-cystei …: MDKDCEMKRTTLDSPLGKLELSGCEQGLHEIKLLGKGTSAADAVEVPAPAAVLGGPEPLMQATAWLNAYFHQPEAIEEFPVPALHHPVFQQESFTRQVLWKLLKVVKFGEVISYSHLAALAGNPAATAAVGGAMRGNPVPILIPCHRVVNINGAVGGYEGGLAVKEWLLAHEGHRLGKPGLG

Test system: DNA
Assay: DNA binding in vitro (co-purified DNA, UV spectroscopy)
Parameters: species or system E. coli
Procedure: The interaction with DNA is e.g. quantified by assessing the amount of copurified DNA from E. coli extracts under conditions of low salt and absence of DNase. This is compared between parallel purifications of fusion proteins (e.g. fusions to GST) of wild type (human) and mutant AGT by spectroscopic methods (ratio of absorbance at 260 and 280 nm). Alternatively the interaction of AGT with DNA is measured as the inhibition of AGT reactivity with BG-Cy3 (O^6-(4-aminomethyl-benzyl)-guanine coupled to Cy3) as substrate in the presence of DNA. This approach takes advantage of a marked increase of fluorescence of the Cy3 fluorophore upon reaction of BG-Cy3 with AGT. The reaction kinetics of AGT with a Cy3-labeled benzylguanine derivative is followed by fluorescence intensity measurements over several hours at various concentrations of salmon sperm DNA.
For comparing the DNA binding properties of the protein in vitro, the harvested cells are resuspended, and the GST fusion protein is purified following the same method but in a buffer containing 50 mM phosphate, 0.1 M NaCl, 1 mM DTT. In the dialysed samples, the amount of subsequently co-purified DNA is estimated by UV spectroscopy. Spectra are recorded using a Perkin Elmer Lambda 10. The content of DNA corresponds to the ratio of the extinctions at 280 and 260 nm. This value is compared to the one obtained on purifying wild type hAGT or PGEG-hAGT, respectively.

Question: For B1, which “reduced DNA binding” value is on record?
Answer: The value was “at least 1000 fold”.

Question: With B2 as the molecule, how does the “reduced DNA binding” value read?
Answer: Its value is “at least 1000 fold”.

Question: With B3 as the molecule, how does the “reduced DNA binding” value read?
Answer: Its value is “at least 1000 fold”.

Reference: US7888090B2, “Mutants of O6-alkylguanine-DNA alkyltransferase” (Ecole Polytechnique Federale de Lausanne, priority 2004, dated 2011)
